Results are given in words; binding and its absence hold for the method and conditions named. In cells and extracts the contact can be indirect. A result given as binding can be weak or reduced; the word gives no strength.
Target: ZFP804A (rodent homologue of ZNF804A) (rat (endogenous in primary cortical neurons))
Assay: co-IP

B1: NT5C2 (rodent, endogenous in cortical neurons) (protein, UniProt D3ZMY7 1-560)
chain: MMTSWSDRLQNAADVPANMDKHALKKYRREAYHRVFVNRSLAMEKIKCFGFDMDYTLAVYKSPEYESLGFELTVERLVSIGYPQELLNFAYDSTFPTRGLVFDTLYGNLLKVDAYGNLLVCAHGFNFIRGPETREQYPNKFIQRDDTERFYILNTLFNLPETYLLACLVDFFTNCPRYTSCDTGFKDGDLFMSYRSMFQDVRDAVDWVHYKGSLKEKTVENLEKYVVKDGKLPLLLSRMKEVGKVFLATNSDYKYTDKIMTYLFDFPHGPKPGSSHRPWQSYFDLILVDARKPLFFGEGTVLRQVDTKTGKLKIGTYTGPLQHGIVYSGGSSDTICDLLGAKGKDILYIGDHIFGDILKSKKRQGWRTFLVIPELAQELHVWTDKSSLFEELQSLDIFLAELYKHLDSSSNERPDISSIQRRIKKVTHDMDMCYGMMGSLFRSGSRQTLFASQVMRYADLYAASFINLLYYPFSYLFRAAHVLMPHESTVEHTHVDINEMESPLATRNRTSVDFKDTDYKRHQLTRSISEIKPPNLFPLAPQEITHCHDEDDDEEEEEEE
- binding: binds
